In patent publication US20060263354A1:
These are yes or no findings as the source states them, for the method shown. Some results given as binding are weak or reduced against the parent protein; the word gives no strength.

Target: T1, mature GDF8/propeptide complex (human) (UniProt O14793)
T1 sequence 1: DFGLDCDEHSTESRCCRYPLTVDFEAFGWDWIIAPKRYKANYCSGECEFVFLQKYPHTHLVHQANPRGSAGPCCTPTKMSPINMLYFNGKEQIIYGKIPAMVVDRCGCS
T1 sequence 2: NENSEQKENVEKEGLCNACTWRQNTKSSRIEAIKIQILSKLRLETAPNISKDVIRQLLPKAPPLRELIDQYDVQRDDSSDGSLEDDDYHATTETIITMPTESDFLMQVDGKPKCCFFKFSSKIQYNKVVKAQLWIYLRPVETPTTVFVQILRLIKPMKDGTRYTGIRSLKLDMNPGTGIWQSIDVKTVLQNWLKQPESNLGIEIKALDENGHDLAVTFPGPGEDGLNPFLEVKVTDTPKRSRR
Experiment: immunoprecipitation from 293T conditioned medium, western blot

B1: 1-66-1 (antibody, V domains shown)
VH: EVQLVESGGGLVKPGGSLRLSCAASGFTFSSYSMNWVRQAPGKGLEWVSSISSSSSYIYYADSVKGRFTISRDNAKNSLYLQMNSLRAEDTAVYYCARDRGYSYGLDYWGQGTLVTVSS
VL: DIQMTQSPSSLSASVGDRVTITCRASQGIRNDLGWYQQKPGKAPKRLIYAASSLQSGVPSRFSGSGSGTEFTLTISSLQPEDFATYYCLQLNSYPFTFGPGTKVDIKR
binding: binds
